PubChem BioAssay AID1224830 – NIAID, 2016
Aim: 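Regulators of TLR4 signalling towards TNF-alpha in macrophage-like cells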 (primary screen). Cells: human THP-1 monocytic leukaemia cells, TNF dual-luciferase reporter clone, PMA-differentiated to macrophage-like cells. Reagent: siRNA pool against human genes, 50 nM. Duration: LPS for 4 h, given about 3 days after siRNA transfection. Conditions: bacterial LPS (TLR4 ligand), 10 ng/ml. Read-out: 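Ratio of firefly to renilla light, scaled to the plate median and expressed as a robust z-score per replicate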. Direction: TNF reporter robust z-score: higher = stronger TNF reporter response to LPS. Call rule: 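a well is active when its z-score exceeds 2.8 or falls below -1.5; control wells carry no call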.
Here is an unselected part of about 18,000 reagents. Of all reagents, about 2,900 (16%) got an active call. 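Calls are made per well; low scores hint the gene aids the LPS response, high scores that it dampens it.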 The numbers tell different reagents against one gene apart. Repeated entries: four replicate wells of each siRNA pool.

| gene symbol | reagent no. | TNF reporter robust z-score | call |
| --- | --- | --- | --- |
| AP2M1 (adaptor related protein complex 2 subunit mu 1) | 1 | -1.03 | inactive |
| AP2M1 (adaptor related protein complex 2 subunit mu 1) | 1 | 0.28 | inactive |
| AP2M1 (adaptor related protein complex 2 subunit mu 1) | 1 | -0.27 | inactive |
| AP2M1 (adaptor related protein complex 2 subunit mu 1) | 1 | 0.44 | inactive |
| PITHD1 (PITH domain containing 1) | 1 | 0.04 | inactive |
| PITHD1 (PITH domain containing 1) | 1 | 1.72 | inactive |
| PITHD1 (PITH domain containing 1) | 1 | -0.15 | inactive |
| PITHD1 (PITH domain containing 1) | 1 | 0.82 | inactive |
| TTC23L (tetratricopeptide repeat domain 23 like) | 1 | -0.77 | inactive |
| TTC23L (tetratricopeptide repeat domain 23 like) | 1 | -1.24 | inactive |
| TTC23L (tetratricopeptide repeat domain 23 like) | 1 | -0.25 | inactive |
| TTC23L (tetratricopeptide repeat domain 23 like) | 1 | -0.53 | inactive |
| SMAD9 (SMAD family member 9) | 1 | -0.24 | inactive |
| SMAD9 (SMAD family member 9) | 1 | 0.35 | inactive |
| SMAD9 (SMAD family member 9) | 1 | -0.72 | inactive |
| SMAD9 (SMAD family member 9) | 1 | 1.01 | inactive |
| BRF2 (BRF2 general transcription factor IIIB subunit) | 1 | 1.39 | inactive |
| BRF2 (BRF2 general transcription factor IIIB subunit) | 1 | 2.11 | inactive |
| BRF2 (BRF2 general transcription factor IIIB subunit) | 1 | 3.19 | active |
| BRF2 (BRF2 general transcription factor IIIB subunit) | 1 | 2.28 | inactive |
| AK9 (adenylate kinase 9) | 1 | -0.06 | inactive |
| AK9 (adenylate kinase 9) | 1 | 0.54 | inactive |
| AK9 (adenylate kinase 9) | 1 | 0.81 | inactive |
| AK9 (adenylate kinase 9) | 2 | 0.25 | inactive |
| AK9 (adenylate kinase 9) | 2 | 1.78 | inactive |
| AK9 (adenylate kinase 9) | 2 | -0.49 | inactive |
| AK9 (adenylate kinase 9) | 2 | -1.15 | inactive |
| AK9 (adenylate kinase 9) | 3 | 0.4 | inactive |
| AK9 (adenylate kinase 9) | 3 | 0.43 | inactive |
| AK9 (adenylate kinase 9) | 3 | 0.39 | inactive |
| AK9 (adenylate kinase 9) | 3 | 0.38 | inactive |
| CD163 (CD163 molecule) | 1 | -1.42 | inactive |
| CD163 (CD163 molecule) | 1 | -0.07 | inactive |
| CD163 (CD163 molecule) | 1 | -1.15 | inactive |
| CD163 (CD163 molecule) | 1 | -0.35 | inactive |
| USP2 (ubiquitin specific peptidase 2) | 1 | -0.42 | inactive |
| USP2 (ubiquitin specific peptidase 2) | 1 | 0.52 | inactive |
| USP2 (ubiquitin specific peptidase 2) | 1 | -0.16 | inactive |
| USP2 (ubiquitin specific peptidase 2) | 1 | 1.03 | inactive |
| SLC25A2 | 1 | -0.91 | inactive |
| SLC25A2 | 1 | -0.14 | inactive |
| SLC25A2 | 1 | -0.15 | inactive |
| SLC25A2 | 1 | -0.43 | inactive |
| PAGE5 (PAGE family member 5) | 1 | -0.98 | inactive |
| PAGE5 (PAGE family member 5) | 1 | -0.77 | inactive |
| PAGE5 (PAGE family member 5) | 1 | -0.91 | inactive |
| PAGE5 (PAGE family member 5) | 1 | -0.59 | inactive |
| BCAR3 (BCAR3 adaptor protein, NSP family member) | 1 | 2.62 | inactive |
| BCAR3 (BCAR3 adaptor protein, NSP family member) | 1 | 1.52 | inactive |
| BCAR3 (BCAR3 adaptor protein, NSP family member) | 1 | 1.86 | inactive |
| BCAR3 (BCAR3 adaptor protein, NSP family member) | 1 | 4.08 | active |

The results go on.
| gene symbol | reagent no. | TNF reporter robust z-score | call |
| --- | --- | --- | --- |
| CBR3 (carbonyl reductase 3) | 1 | 2.5 | inactive |
| CBR3 (carbonyl reductase 3) | 1 | 2.53 | inactive |
| CBR3 (carbonyl reductase 3) | 1 | 2.47 | inactive |
| CBR3 (carbonyl reductase 3) | 1 | 1.83 | inactive |
| CDH10 (cadherin 10) | 1 | 0.65 | inactive |
| CDH10 (cadherin 10) | 1 | 0.05 | inactive |
| CDH10 (cadherin 10) | 1 | -0.92 | inactive |
| CDH10 (cadherin 10) | 1 | 0.24 | inactive |
| KCNS1 | 1 | -1.1 | inactive |
| KCNS1 | 1 | 0.17 | inactive |
| KCNS1 | 1 | 0.67 | inactive |
| KCNS1 | 1 | 0.52 | inactive |
| LOC642219 (retired record) | 1 | 2.02 | inactive |
| LOC642219 (retired record) | 1 | 0.66 | inactive |
| LOC642219 (retired record) | 1 | 2.77 | inactive |
| LOC642219 (retired record) | 1 | -0.3 | inactive |
| SNAPC4 (small nuclear RNA activating complex polypeptide 4) | 1 | -0.04 | inactive |
| SNAPC4 (small nuclear RNA activating complex polypeptide 4) | 1 | 0.76 | inactive |
| SNAPC4 (small nuclear RNA activating complex polypeptide 4) | 1 | 0.65 | inactive |
| SNAPC4 (small nuclear RNA activating complex polypeptide 4) | 1 | 0.09 | inactive |
| SLC15A3 | 1 | -0.56 | inactive |
| SLC15A3 | 1 | 0.49 | inactive |
| SLC15A3 | 1 | 0.33 | inactive |
| SLC15A3 | 1 | 1.14 | inactive |
| TBX19 (T-box transcription factor 19) | 1 | 2.04 | inactive |
| TBX19 (T-box transcription factor 19) | 1 | -0.48 | inactive |
| TBX19 (T-box transcription factor 19) | 1 | -0.91 | inactive |
| TBX19 (T-box transcription factor 19) | 1 | 2 | inactive |
| NPR3 (natriuretic peptide receptor 3) | 1 | 0.11 | inactive |
| NPR3 (natriuretic peptide receptor 3) | 1 | 0.4 | inactive |
| NPR3 (natriuretic peptide receptor 3) | 2 | 1.08 | inactive |
| NPR3 (natriuretic peptide receptor 3) | 2 | -0.27 | inactive |
| NPR3 (natriuretic peptide receptor 3) | 2 | 0.17 | inactive |
| NPR3 (natriuretic peptide receptor 3) | 2 | 2.01 | inactive |
| TNNC1 (troponin C1, slow skeletal and cardiac type) | 1 | 1.51 | inactive |
| TNNC1 (troponin C1, slow skeletal and cardiac type) | 1 | 2.58 | inactive |
| TNNC1 (troponin C1, slow skeletal and cardiac type) | 1 | -1.51 | active |
| TNNC1 (troponin C1, slow skeletal and cardiac type) | 1 | 0.82 | inactive |
| HBEGF (heparin binding EGF like growth factor) | 1 | -0.64 | inactive |
| HBEGF (heparin binding EGF like growth factor) | 1 | -0.6 | inactive |
| HBEGF (heparin binding EGF like growth factor) | 1 | -0.81 | inactive |
| HBEGF (heparin binding EGF like growth factor) | 1 | -0.15 | inactive |
| TCF7L1 (transcription factor 7 like 1) | 1 | -0.84 | inactive |
| TCF7L1 (transcription factor 7 like 1) | 1 | -0.57 | inactive |
| TCF7L1 (transcription factor 7 like 1) | 1 | 0.34 | inactive |
| TCF7L1 (transcription factor 7 like 1) | 1 | 0.57 | inactive |
| PDE4C (phosphodiesterase 4C) | 1 | -1.61 | active |
| PDE4C (phosphodiesterase 4C) | 1 | -1.12 | inactive |
| PDE4C (phosphodiesterase 4C) | 1 | -1.04 | inactive |
| PDE4C (phosphodiesterase 4C) | 1 | -0.36 | inactive |
| CSMD1 (CUB and Sushi multiple domains 1) | 1 | 0.17 | inactive |
| CSMD1 (CUB and Sushi multiple domains 1) | 1 | 2.36 | inactive |
| CSMD1 (CUB and Sushi multiple domains 1) | 1 | 2.29 | inactive |
| CSMD1 (CUB and Sushi multiple domains 1) | 1 | 2.48 | inactive |
| AIRIM (AFG2 interacting ribosome maturation factor) | 1 | -0.23 | inactive |
| AIRIM (AFG2 interacting ribosome maturation factor) | 1 | 1.07 | inactive |
| AIRIM (AFG2 interacting ribosome maturation factor) | 1 | 0.88 | inactive |
| AIRIM (AFG2 interacting ribosome maturation factor) | 1 | 1.67 | inactive |
| RGS6 (regulator of G protein signaling 6) | 1 | -0.43 | inactive |
| RGS6 (regulator of G protein signaling 6) | 1 | -0.06 | inactive |
| RGS6 (regulator of G protein signaling 6) | 1 | -0.1 | inactive |
| RGS6 (regulator of G protein signaling 6) | 1 | 0.69 | inactive |
